PubChem BioAssay AID489008 (National Center for Advancing Translational Sciences (NCATS), 2010)
Inconclusive means that the source gave no clear call. A potency beside an inconclusive call is a rough fit, not a confirmed value.

Chains of the proteins cited; added tags and fusions are not shown. Lines headed by an entry give the natural chain unless they say otherwise; changes in a name come on top.
UniProt P02791: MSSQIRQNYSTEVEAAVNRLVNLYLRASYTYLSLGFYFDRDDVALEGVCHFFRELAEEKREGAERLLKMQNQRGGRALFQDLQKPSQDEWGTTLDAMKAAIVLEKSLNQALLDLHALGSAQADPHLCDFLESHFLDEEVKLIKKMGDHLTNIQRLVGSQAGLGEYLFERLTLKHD

The molecules below were run against Ferritin light chain (Equus caballus) (UniProt P02791) (assay: Confirmation Assay for Identification of Novel General Anesthetics). Details: apoferritin 1-aminoanthracene fluorescence displacement; active = well fitted inhibition curve with a large enough effect; inconclusive = small, poorly fitted or top-dose-only effect; inactive = flat fitted curve, though single readings scatter.
Description: Anesthetic development has remained a largely empirical process. There are growing concerns about the cognitive effects of known general anesthetics and acceleration of the onset of neurodegenerative disease. The compounds' toxicity and multiple specific binding targets in the mammalian brain [4] has made them less attractive as drug leads. In this assay, a GABAergic mimetic model system, apoferritin and a profluorescent 1-aminoanthracene ligand (1-AMA), was used to construct a competitive binding assay for identification of novel general anesthetics. The assay was validated for 1-AMA using other known anesthetics, such as isoflurane (CID:3763) and propofol (CID: 4943), [6]. This particular BioAssay is a confirmation of followup compounds from primary screen AID:485281.
[1] S.L. Bianchi, T. Tran, C. Liu, S. Lin, Y. Li, J.M. Keller, R.G. Eckenhoff, and M.F. Eckenhoff, Brain and behavior changes in 12-month-old Tg2576 and nontransgenic mice exposed to anesthetics. Neurobiol Aging 29 (2008) 1002-10.
[2] Z. Xie, Y. Dong, U. Maeda, R.D. Moir, W. Xia, D.J. Culley, G. Crosby, and R.E. Tanzi, The inhalation anesthetic isoflurane induces a vicious cycle of apoptosis and amyloid beta-protein accumulation. J Neurosci 27 (2007) 1247-54.
[3] P. Honegger, and J.M. Matthieu, Selective toxicity of the general anesthetic propofol for GABAergic neurons in rat brain cell cultures. J Neurosci Res 45 (1996) 631-6.
[4] M.F. Eckenhoff, K. Chan, and R.G. Eckenhoff, Multiple specific binding targets for inhaled anesthetics in the mammalian brain. J Pharmacol Exp Ther 300 (2002) 172-9.
[5] C.A. Butts, J. Xi, G. Brannigan, A.A. Saad, S.P. Venkatachalan, R.A. Pearce, M.L. Klein, R.G. Eckenhoff, and I.J. Dmochowski, Identification of a fluorescent general anesthetic, 1-aminoanthracene. Proc Natl Acad Sci U S A 106 (2009) 6501-6.
[6] W.A. Lea, J. Xi, A. Jadhav, L. Lu, C.P. Austin, A. Simeonov, and R.G. Eckenhoff, A high-throughput approach for identification of novel general anesthetics. PLoS One 4 (2009) e7150.
Source: NIH Chemical Genomics Center [NCGC]
Assay Submitter: Roderic Eckenhoff, University of Pennsylvania
Screening Center PI: Christopher P. Austin, NIH
Probe Development: NIH Chemical Genomics Center [NCGC]
Three uL of reagents (free 1-AMA (50% saturated solution of 1-aminoanthracene
in PBS) in columns 3, 4 as negative control and 1-AMA/apoferritin mixture (10 uM horse-spleen apoferritin in 50% saturated 1-aminoanthracene in PBS) in columns 1, 2, 5-48) was dispensed into 1536-well Greiner black assay plates. Compounds (23 nL) were transferred via Kalypsys pintool equipped with 1,536-pin array (10 nL slotted pins, V&P Scientific, San Diego, CA). Titration of the positive control, propofol, were delivered via pin transfer from separate control plates to the 2nd column of each assay plate. The starting concentration of the control, dissolved in DMSO, was at 160 mM, followed by two-fold dilution points in duplicate, for a total of 16 concentrations. The plates were incubated for 10 min at room temperature, and then read on an EnVision HTS multilabel reader (Perkin-Elmer, Waltham, MA) (end point read, 3 min/plate) using Fura2 BFP excitation filter (380 nm, bandwidth 10 nm) and fluorescein emission filter (535 nm, bandwidth 25 nm) set. A LANCE/DELFIA dichroic mirror with a cutoff wavelength at 400 nm was used to maximize signal accuracy and strength. Vehicle-only plates, with DMSO being pin-transferred to the entire column 5-48 compound area, were inserted uniformly at the beginning and the end of each library in order to monitor for and record any shifts in the background. Activity was computed as the normalized fluorescence response relative to free 1-AMA and 1-AMA/apoferritin complex values. Concentration-effect relationships were derived by using curve fitting algorithms developed in-house (http://ncgc.nih.gov/pub/openhts/). […]
Note: nearly all actives have a fitted effect of over 40% in size.
Potency is the fitted concentration of half-maximal effect.

SMILES	Potency
Clc1cccc(CN2CCCCC2c2cccnc2)c1 (stereo not drawn)	inconclusive: 35.5 µM [inhibitor, partial curve]
CCOC(=O)C(C)Oc1cc(C)cc2oc(=O)c3c(c12)CCCC3 (stereo not drawn)	inconclusive: 44.7 µM [inhibitor, partial curve]
CC(C)c1cccc(C(C)C)c1O	inconclusive: 16.2 µM [inhibitor, partial curve]
NS(=O)(=O)OC(CCc1ccccc1)C(Cl)(Cl)Cl (stereo not drawn)	inconclusive: 35.5 µM [inhibitor, partial curve]
O=C1/C(=C/c2ccccc2Cl)N2CCC1CC2	inconclusive: 35.5 µM [inhibitor, partial curve]
CC1(C)COC(Nc2cccc(Cl)c2)=N1	inconclusive: 31.6 µM [inhibitor, partial curve]
CC1CCC(C(C)C)C(OP(N)(=O)c2ccccc2)C1 (stereo not drawn)	inconclusive: 39.8 µM [inhibitor, partial curve]
c1ccc2c(c1)CNc1ccccc1O2	inconclusive: 44.7 µM [inhibitor, partial curve]

Exported as a markdown table: entries from further up.

| SMILES | Potency |
| --- | --- |
| CCOC(=O)C(C)Oc1cc(C)cc2oc(=O)c3c(c12)CCCC3 (stereo not drawn) | inconclusive: 44.7 µM [inhibitor, partial curve] |
| CC(C)c1cccc(C(C)C)c1O | inconclusive: 16.2 µM [inhibitor, partial curve] |
